According to patent US4666924A, “Certain pyridyl substituted aminomethyl benzene derivatives having anti-arrhythmic activity” (priority 1984, dated 1987):
For at least one compound, name, drawing or mass did not settle the structure.

Tested on: Harris dog (ventricular arrhythmias)
Assay: Antiarrhythmic activity by coronary ligation in the Harris dog model
Format: in vivo, adult mongrel dogs
Conditions: IV infusion in saline, cumulative rate 0.3 mg/kg/min (base); day after two-stage ligation of left anterior descending coronary artery; normal sinus rhythm = 90-100% normal complexes over 5 min
Source text: The following examples describe the pharmacological evaluation of the compounds made in accordance with the present invention. In particular, these examples describe the evaluation of antiarrhythmic activity by coronary ligation in the well known Harris dog model. Ventricular arrhythmias were induced in adult mongrel dogs (10-15 kg) of either sex by two-state ligation of the left anterior descending coronary artery. […] The test compound in saline was infused intravenously at a cumulative rate of 0.3 mg/kg/min (base) until normal sinus rhythm or toxicity occurred. Normal sinus rhythm was defined as 90-100% normal complexes over a 5 min period.

## COc1cc2c(Nc3cc(CN4CCCC4)c(O)c(CN4CCCC4)c3)ncnc2c(OC)c1OC [XII, 4-[3',5'-bis(pyrrolidinylmethyl)-4'-hydroxyanilino]-6,7,8-trimethoxyquinazoline]
  Antiarrhythmic ED in Harris Dog (effective dose required to sustain normal sinus rhythm): low activity
